According to the supplement of paper PMC12819154, “High-throughput peptide-centric local stability assay extends protein–ligand identification to membrane proteins, tissues and bacteria” (Nature Structural & Molecular Biology, 2025):
This is one part of the list. Most values lie at the level of the controls, where differences are scatter.

Amino acid sequences for entries named in this document (tags omitted). A change or cut given only in a name is not applied to a line headed by its entry.
UniProt Q8CCJ3: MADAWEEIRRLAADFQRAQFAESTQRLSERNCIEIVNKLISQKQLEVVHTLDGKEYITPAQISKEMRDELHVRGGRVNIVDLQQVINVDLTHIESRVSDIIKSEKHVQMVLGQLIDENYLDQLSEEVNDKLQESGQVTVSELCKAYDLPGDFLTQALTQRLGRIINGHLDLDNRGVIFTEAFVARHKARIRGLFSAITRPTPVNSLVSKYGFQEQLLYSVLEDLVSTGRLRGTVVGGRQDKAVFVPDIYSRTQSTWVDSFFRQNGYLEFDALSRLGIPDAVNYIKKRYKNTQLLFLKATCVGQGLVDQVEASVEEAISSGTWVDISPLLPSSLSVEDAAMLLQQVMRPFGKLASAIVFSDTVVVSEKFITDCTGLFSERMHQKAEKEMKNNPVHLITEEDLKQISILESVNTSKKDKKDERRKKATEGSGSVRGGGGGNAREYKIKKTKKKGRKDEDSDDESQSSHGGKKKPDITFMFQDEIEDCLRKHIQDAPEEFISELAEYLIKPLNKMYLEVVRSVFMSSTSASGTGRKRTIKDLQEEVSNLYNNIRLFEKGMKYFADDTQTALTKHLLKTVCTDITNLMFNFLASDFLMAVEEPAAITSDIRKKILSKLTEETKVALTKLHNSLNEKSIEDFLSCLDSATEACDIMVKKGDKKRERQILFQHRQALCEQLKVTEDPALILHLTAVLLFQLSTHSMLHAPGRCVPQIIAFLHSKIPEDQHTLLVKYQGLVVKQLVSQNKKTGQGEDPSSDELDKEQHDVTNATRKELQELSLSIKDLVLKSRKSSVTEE
UniProt Q8JZZ6: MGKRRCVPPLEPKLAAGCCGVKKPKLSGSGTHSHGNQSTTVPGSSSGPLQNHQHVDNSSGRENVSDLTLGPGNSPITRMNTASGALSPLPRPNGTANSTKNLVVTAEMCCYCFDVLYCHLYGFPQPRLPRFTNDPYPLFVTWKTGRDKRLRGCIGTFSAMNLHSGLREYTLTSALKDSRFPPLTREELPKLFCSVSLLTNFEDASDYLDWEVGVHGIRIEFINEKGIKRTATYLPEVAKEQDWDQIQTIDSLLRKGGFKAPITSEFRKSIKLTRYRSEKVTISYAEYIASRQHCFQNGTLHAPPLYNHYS
UniProt Q8CE22: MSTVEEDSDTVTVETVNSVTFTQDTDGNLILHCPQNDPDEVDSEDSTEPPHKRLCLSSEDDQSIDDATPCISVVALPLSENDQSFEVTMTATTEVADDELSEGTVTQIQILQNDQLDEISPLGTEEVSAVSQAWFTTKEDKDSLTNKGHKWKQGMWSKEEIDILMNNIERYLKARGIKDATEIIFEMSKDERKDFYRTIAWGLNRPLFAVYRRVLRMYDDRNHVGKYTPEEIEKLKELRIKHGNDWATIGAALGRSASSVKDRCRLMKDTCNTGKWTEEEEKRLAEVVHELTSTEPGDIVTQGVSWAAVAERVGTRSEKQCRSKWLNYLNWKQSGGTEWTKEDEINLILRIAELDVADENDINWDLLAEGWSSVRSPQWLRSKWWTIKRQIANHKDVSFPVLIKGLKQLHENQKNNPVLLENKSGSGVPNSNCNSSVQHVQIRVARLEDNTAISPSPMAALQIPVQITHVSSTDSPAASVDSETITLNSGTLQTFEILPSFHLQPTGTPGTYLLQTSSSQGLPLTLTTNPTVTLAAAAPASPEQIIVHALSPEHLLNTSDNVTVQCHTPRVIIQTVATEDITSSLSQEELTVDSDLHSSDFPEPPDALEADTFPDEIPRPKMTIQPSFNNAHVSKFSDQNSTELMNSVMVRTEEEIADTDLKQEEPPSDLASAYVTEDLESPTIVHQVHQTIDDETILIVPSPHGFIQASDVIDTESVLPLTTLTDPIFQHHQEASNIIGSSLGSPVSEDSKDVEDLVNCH
UniProt Q8CFI0: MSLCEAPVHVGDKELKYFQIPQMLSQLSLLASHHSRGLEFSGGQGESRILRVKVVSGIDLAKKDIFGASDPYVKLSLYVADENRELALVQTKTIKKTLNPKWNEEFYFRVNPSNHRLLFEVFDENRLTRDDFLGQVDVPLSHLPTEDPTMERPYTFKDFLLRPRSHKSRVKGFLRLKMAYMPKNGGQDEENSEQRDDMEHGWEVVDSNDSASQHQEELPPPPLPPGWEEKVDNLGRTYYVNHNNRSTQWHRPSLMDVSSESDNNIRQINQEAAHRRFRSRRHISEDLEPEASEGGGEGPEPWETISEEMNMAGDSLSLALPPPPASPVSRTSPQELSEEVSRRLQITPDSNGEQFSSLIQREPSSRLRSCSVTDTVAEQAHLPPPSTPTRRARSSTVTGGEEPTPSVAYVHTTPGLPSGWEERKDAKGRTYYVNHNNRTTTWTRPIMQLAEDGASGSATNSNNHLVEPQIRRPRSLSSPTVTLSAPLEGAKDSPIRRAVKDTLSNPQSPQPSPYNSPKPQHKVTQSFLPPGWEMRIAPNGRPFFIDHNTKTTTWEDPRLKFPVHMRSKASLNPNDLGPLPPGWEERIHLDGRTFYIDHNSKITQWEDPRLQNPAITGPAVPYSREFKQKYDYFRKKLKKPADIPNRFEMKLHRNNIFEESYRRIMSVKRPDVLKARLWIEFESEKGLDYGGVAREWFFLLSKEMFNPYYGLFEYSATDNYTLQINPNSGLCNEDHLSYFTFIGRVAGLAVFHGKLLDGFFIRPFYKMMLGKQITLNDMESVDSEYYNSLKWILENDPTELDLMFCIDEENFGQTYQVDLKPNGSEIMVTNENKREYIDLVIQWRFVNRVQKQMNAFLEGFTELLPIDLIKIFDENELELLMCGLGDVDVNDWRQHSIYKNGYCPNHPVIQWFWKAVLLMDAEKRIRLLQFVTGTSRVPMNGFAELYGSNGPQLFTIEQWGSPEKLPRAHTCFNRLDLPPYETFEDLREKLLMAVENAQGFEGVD
UniProt Q8JZQ2: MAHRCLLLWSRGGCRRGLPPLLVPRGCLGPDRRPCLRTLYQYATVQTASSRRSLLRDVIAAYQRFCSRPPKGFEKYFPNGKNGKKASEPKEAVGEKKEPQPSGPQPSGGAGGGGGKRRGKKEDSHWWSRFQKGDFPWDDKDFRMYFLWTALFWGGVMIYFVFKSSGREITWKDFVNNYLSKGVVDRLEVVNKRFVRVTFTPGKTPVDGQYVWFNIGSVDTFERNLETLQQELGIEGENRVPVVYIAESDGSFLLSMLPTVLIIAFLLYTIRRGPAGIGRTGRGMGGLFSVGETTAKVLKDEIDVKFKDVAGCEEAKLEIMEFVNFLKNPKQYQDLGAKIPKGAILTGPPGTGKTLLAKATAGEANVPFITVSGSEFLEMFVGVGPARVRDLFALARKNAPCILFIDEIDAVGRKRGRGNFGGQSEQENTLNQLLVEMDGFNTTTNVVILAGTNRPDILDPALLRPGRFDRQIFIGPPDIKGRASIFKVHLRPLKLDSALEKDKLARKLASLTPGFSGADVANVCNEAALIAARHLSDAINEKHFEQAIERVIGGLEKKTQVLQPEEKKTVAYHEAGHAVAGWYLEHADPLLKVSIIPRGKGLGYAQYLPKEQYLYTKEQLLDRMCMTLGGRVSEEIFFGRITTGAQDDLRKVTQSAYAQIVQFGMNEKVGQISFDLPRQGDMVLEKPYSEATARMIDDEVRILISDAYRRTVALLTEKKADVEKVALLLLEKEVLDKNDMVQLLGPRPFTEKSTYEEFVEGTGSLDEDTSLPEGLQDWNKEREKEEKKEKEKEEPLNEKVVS

Compound: CN[C@@H]1C[C@H]2O[C@@](C)([C@@H]1OC)n1c3ccccc3c3c4c(c5c6ccccc6n2c5c31)C(=O)NC4 [staurosporine]
Assay: log2 fold change of tryptic peptide abundance, ligand vs vehicle (limited proteolysis) (log2 ratio); higher = more trypsin-susceptible (destabilized)
Conditions: ligand concentration: 20 uM; sample: mouse liver crude lysate; replicate design: treated separately

**Q.** With “UniProt Q8CCJ3 (peptide sequence: RLAADFQR, peptide start residue: 10)” as the target, how does the log2 fold change read?
**A.** -0.438

**Q.** How did the log2 fold change turn out when “UniProt Q8JZZ6 (peptide sequence: APITSEFRK, peptide start residue: 260)” was run?
**A.** 0.474

**Q.** With “UniProt Q8CE22 (peptide sequence: YTPEEIEKLK, peptide start residue: 227)” as the target, how does the log2 fold change read?
**A.** 0.6

**Q.** Which log2 fold change does the source give for “UniProt Q8CFI0 (peptide sequence: RIMSVKR, peptide start residue: 663)” here?
**A.** -0.315

**Q.** How did the log2 fold change turn out when “UniProt Q8JZQ2 (peptide sequence: MCMTLGGR, peptide start residue: 624)” was run?
**A.** 0.171
